For this test, the system named is NCI-H358 (K-Ras G12C). The test can be described thus: CellTiter-Glo cell viability assay, NCI-H358. It is filed as cell-based, human. The note with it: read-out: H358 Cell Viability assay data (K-Ras G12C, IC50); Table 5. Background: ATP-based viability assays read luminescence as a measure of living cells.

SMILES strings stand for the structures. For part of its entries the source gives two or more results. This is not the full list of results. An entry can have further records. The records of an entry do not match, cause unknown; dose, time, organism, isomer or construct need not be as stated for each record.

In the case of `CCn1c(-c2cccnc2[C@H](C)OC)c2c3cc(ccc31)-c1cc(O)cc(c1)C[C@H](NC(=O)[C@H](C(C)C)N(C)C(=O)c1ccc(NC(=O)/C=C/CN(C)C)cn1)C(=O)N1CCC[C@H](N1)C(=O)OCC(C)(C)C2`, the IC50 is 10 nM to 100 nM and 100 nM to 1 µM.

With `CCn1c(-c2cccnc2COC)c2c3cc(ccc31)-c1cc(O)cc(c1)C[C@H](NC(=O)[C@H](C(C)C)N(C)C(=O)[C@H]1CCN(C(=O)C#CC3(N(C)C)COC3)C1)C(=O)N1CCC[C@H](N1)C(=O)OCC(C)(C)C2`, the IC50 is 10 nM to 100 nM and 100 nM to 1 µM.

As to `C=CC(=O)N1CCC2(CC1)CCN([C@H](C(=O)N[C@H]1Cc3cc(O)cc(c3)-c3ccc4c(c3)c(c(-c3ccccc3CCOC)n4CC)CC(C)(C)COC(=O)[C@@H]3CCCN(N3)C1=O)C(C)C)C2=O`, the IC50 was 100 nM to 1 µM and > 1 µM.

Turning to `CCn1c(-c2cccnc2COC)c2c3cc(ccc31)-c1cc(O)cc(c1)CC(NC(=O)C(C(C)C)N(C)C(=O)C1CCN(C(=O)C#CC3CCCN3C)C1)C(=O)N1CCCC(N1)C(=O)OCC(C)(C)C2` (stereo not shown), the IC50 is < 10 nM and 100 nM to 1 µM.

For `CC#CC(=O)N1CC[C@H](C(=O)N(C)[C@H](C(=O)N[C@H]2Cc3cc(O)cc(c3)-c3ccc4c(c3)c(c(-c3ccccc3CCOC)n4CC)CC(C)(C)COC(=O)[C@@H]3CCCN(N3)C2=O)C(C)C)C1`, the IC50 is 100 nM to 1 µM and > 1 µM.

`CCn1c(-c2cccnc2COC)c2c3cc(ccc31)-c1cc(O)cc(c1)C[C@H](NC(=O)[C@H](C(C)C)N(C)C(=O)[C@H]1CCN(C(=O)C#CCN3[C@@H](C)COC[C@@H]3C)C1)C(=O)N1CCC[C@H](N1)C(=O)OCC(C)(C)C2`: the IC50 is 10 nM to 100 nM and 100 nM to 1 µM.

As for `C=CC(=O)N1CC[C@H](C(=O)N(C)[C@H](C(=O)N[C@H]2Cc3cc(O)cc(c3)-c3ccc4c(c3)c(c(-c3ccccc3CCOC)n4CC)C[C@H](C)COC(=O)[C@@H]3CCCN(N3)C2=O)C(C)C)C1`, the IC50 is 100 nM to 1 µM and > 1 µM.

Values taken from patent EP4806900A2, “RAS INHIBITORS” (Revolution Medicines, Inc., priority 2019, dated 2021).
